Measured values reported in PubChem BioAssay AID504467 (National Center for Advancing Translational Sciences (NCATS), 2011).
Screen size: about 330,000 compounds; about 7,700 (2.3%) were called active. This list was built around the results that the source calls inconclusive (neither active nor inactive); the mix of calls is not that of the screen. Calls follow the shape of the dose curve; as a rule, active = well fitted inhibition curve with a large enough effect; inconclusive = small, poorly fitted or top-dose-only effect, or effect the other way; inactive = flat fitted curve, though single readings scatter. Where the call is inconclusive, the potency comes from a doubtful curve fit.

Assay: qHTS screen for small molecules that inhibit ELG1-dependent DNA repair in human embryonic kidney (HEK293T) cells expressing luciferase-tagged ELG1; also: nearly all actives have a fitted effect of over 55% in size
Details: HEK293T ELG1-luciferase reporter, luminescence, 16 h, DNA damage induced by 5-fluorouridine; series mostly up to 46.1 µM
Summary of the method: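 Cells (2,000 per well) received 5-fluorouridine plus test compound or DMSO and were incubated 16 hr at 37 °C, 5% CO2. Luciferase activity was read by luminescence 30 min after ONE-Glo addition; signal suppression marked inhibition of damage-induced ELG1 function.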
Potency is read from the fitted curve at half-maximal effect.

Structure (SMILES) | Potency
Cc1ccc(/C=N/NC(=O)c2sccc2OCc2ccc(F)cc2)cc1 | inconclusive: 10.3 µM [activator, partial curve, poor fit]
C=CCOc1ccc2c(c1)C(=NO)c1cc(OCC=C)ccc1-2 | inconclusive: 25.9 µM [inhibitor, partial curve, poor fit]
Cn1c(-c2ccc(F)cc2)cnc1NCc1ccc(C#N)cc1 | inactive
C=CCNc1nc(C(=O)OC(C)C(=O)c2ccc(C)cc2)cs1 (stereo unspecified) | inconclusive: 14.6 µM [activator, partial curve]
COc1ccc(CN(C)C(=O)CC(c2ccccc2)c2ccccc2)cc1 | inconclusive: 29.1 µM [inhibitor, single point]
COc1ccc(C(=O)N2CCCC2)cc1 | inactive
CC(C)c1ccc(S(=O)(=O)N2CCN(C(=O)CN3C(=O)c4ccccc4C3=O)CC2)cc1 | inconclusive: 16.4 µM [activator, single point]
Cc1ccc2c(c1)c(C1=c3ccccc3=NC1=O)c(O)n2C | inactive
O=[N+]([O-])c1cc(-c2n[nH]c(-c3ccccc3)n2)cc([N+](=O)[O-])c1 | inconclusive: 29.1 µM [inhibitor, single point]
Cc1ccc(C(=O)CSc2nnc(-c3ccco3)o2)o1 | inconclusive: 13 µM [activator, partial curve]
CN(C)c1cc[n+](CC(=O)Nc2ccc(OC(F)F)cc2)cc1 | inactive
CCOCCn1c(SCc2ccccc2)nc2c1c(=O)[nH]c(=O)n2C | inactive
COc1ccc(CCNC(=O)CN(C)S(=O)(=O)c2ccc3nc(C)sc3c2)cc1OC | inconclusive: 11.6 µM [inhibitor, partial curve, poor fit]
CC(C)CC(c1nnnn1C1CCCC1)N1CCN(C(=O)c2ccco2)CC1 (stereo unspecified) | inconclusive: 18.4 µM [activator, partial curve, poor fit]
CCn1c(SCC(=O)Nc2ccc3c(c2)OCCO3)nnc1-c1c[nH]c2ccccc12 | inactive
Cc1ccc(CSCc2ccc(C(=O)NC3CCCC3)o2)cc1 | inconclusive: 18.3 µM [inhibitor, single point]
O=[N+]([O-])c1c(Nc2ccccc2O)cc(Cl)c2nonc12 | active: 25.9 µM
Cc1ccc(C(C)C)c2oc(=O)cc(-c3ccc(-c4ccc(C(F)(F)F)cc4)cc3)c12 | inconclusive: 5.17 µM [inhibitor, single point]
CC(=O)n1cc(/C=N/NC(=O)c2sc(C)nc2C)c2ccccc21 | inactive
Cc1ccc(C)c(NC(=O)NCc2ccccn2)c1 | inactive
COC(=O)/C=c1/s/c(=C(/C#N)C(=O)N2CCCCC2)n(-c2ccccc2)c1=O | inconclusive: 16.4 µM [activator, partial curve, poor fit]
Cc1ccc(S(=O)(=O)N2CCCCC2)cc1NC(=O)COC(=O)c1ccccc1F | inconclusive: 0.164 µM [inhibitor, full curve, poor fit]
COc1ccccc1C(=O)N1C(CC(=O)Nc2cc(Cl)ccc2C)C(=O)NC2CCCCC21 (stereo unspecified) | inconclusive: 13 µM [inhibitor, partial curve]
COc1ccc(-c2csc(NC(=O)C3=COCCO3)n2)cc1OC | inconclusive: 11.6 µM [activator, single point]

Structure (SMILES) | Potency
O=C(OCC(=O)c1c[nH]c2ccccc12)C1=COCCO1 | inconclusive: 18.4 µM [activator, partial curve]
CCN(CC)C(=O)CSc1nnc(-c2ccccc2)o1 | inconclusive: 11.6 µM [activator, partial curve]
CCOc1ccc(N2C(=O)C3C(C2=O)C3(c2ccccc2)c2ccccc2)cc1 (stereo unspecified) | inconclusive: 25.9 µM [inhibitor, partial curve, poor fit]
C[C@H](NC(=O)c1[nH]cnc1C(=O)Nc1ccc(Cl)cc1)C(=O)OC(C)(C)C | inconclusive: 20.6 µM [inhibitor, single point]
O=C(CSc1ccc(Cl)cc1)Nc1ccccc1N1CCN(C(=O)c2ccccc2)CC1 | inconclusive: 29.1 µM [inhibitor, single point]
O=c1cc(-c2ccc([N+](=O)[O-])cc2)nc2cc(-c3ccc(F)cc3)[nH]n12 | inactive
Cc1cc(C)cc(NC(=O)c2cc(C)n(Cc3cccs3)c2C)c1 | inconclusive: 4.61 µM [activator, partial curve]
O=S(=O)(c1ccc(Cl)c(C(F)(F)F)c1)N1CCN(c2ccccn2)CC1 | inactive
Cc1oc(C(C)(C)C)cc1C(=O)Nc1cccc(C(=O)O)c1 | inconclusive: 5.17 µM [activator, partial curve]
COc1ccc(-c2nn(CC(=O)Nc3ccc(Cl)c(Cl)c3)c(=O)c3ccccc23)cc1 | inactive
O=C(NC(=S)Nc1ccc2[nH]c(=O)[nH]c2c1)c1cccc(F)c1 | inconclusive: 16.4 µM [activator, partial curve, poor fit]
CCN1CCc2c(OCC(=O)Nc3cccc(C)c3C)cccc2C1=O | inconclusive: 23.1 µM [inhibitor, single point]
COCCSc1nnc(NC(=O)CSc2ccccc2)s1 | inactive
O=C(Nc1ccc2c(c1)OCO2)c1cc(-c2cccc(O)c2)on1 | inactive
Brc1ccc(-n2cc(-c3ccccc3)c3c(NN4CCOCC4)ncnc32)cc1 | inactive
COc1ccc2[nH]cc(CCn3ccc(O)c(C/C=C/c4ccccc4)c3=O)c2c1 | inconclusive: 29.1 µM [inhibitor, partial curve, poor fit]
COc1ccc(-c2cc(C(=O)N3CCCc4ccccc43)no2)cc1 | inconclusive: 5.8 µM [activator, full curve]
COc1ccc(/C=C/C(=O)c2cc(F)ccc2OC(=O)c2ccc(OC)c(OC)c2)cc1OC | active: 14.6 µM
Cc1ccc(S(=O)(=O)N2CCN(c3nc(C)c4c(c3C#N)CC(C)(C)OC4)CC2)cc1 | inconclusive: 23.1 µM [inhibitor, single point]
Cc1cccc(NC(=S)NC(=O)CCc2ccccc2)c1C | inactive
Cc1ccccc1NC(=O)C(=O)Nc1ccccc1C | inconclusive: 1.16 µM [activator, full curve]
Cc1cc(C(C)(C)C)cc(S(=O)(=O)NCCc2ccncc2)c1C | inactive
O=C(NC1CCCC1)c1cc(-c2ccccc2O)on1 | inconclusive: 18.3 µM [activator, partial curve]
CCCc1ccc(-c2ccc(/C=C/C(=O)O)cc2)nc1 | inconclusive: 29.1 µM [inhibitor, single point]

By substructure: the entries above with a thiophene ring, fused or not (two)
Structure (SMILES) | Potency
Cc1ccc(/C=N/NC(=O)c2sccc2OCc2ccc(F)cc2)cc1 | inconclusive: 10.3 µM [activator, partial curve, poor fit]
Cc1cc(C)cc(NC(=O)c2cc(C)n(Cc3cccs3)c2C)c1 | inconclusive: 4.61 µM [activator, partial curve]

(next part)

Structure (SMILES) | Potency
CCOc1ccc(C(=O)NCC2CCCO2)cc1OCC (stereo unspecified) | inactive
CCCCC(=O)NC(=S)Nc1cc([N+](=O)[O-])ccc1OC | inactive
COc1ccc(C(CNC(=O)c2ccc(-c3nc4ccccc4s3)o2)N2CCCC2)cc1 (stereo unspecified) | inconclusive: 32.6 µM [inhibitor, partial curve, poor fit]
Cc1ccc(CNc2ccc3c(c2)ncn3C)cc1 | inconclusive: 14.6 µM [activator, partial curve]
CCOC(=O)c1c(NC(=O)Cn2c(C)nc3ccccc32)sc2c1CCC2 | inconclusive: 16.4 µM [inhibitor, partial curve]
CC(Oc1ccc2ccc(=O)oc2c1)C(=O)NC(Cc1c[nH]c2ccc(O)cc12)C(=O)O (stereo unspecified) | inconclusive: 29.1 µM [activator, single point]
C=CCNC(=S)N/N=C/c1ccc(N(CC)Cc2ccccc2)cc1 | inconclusive: 14.6 µM [inhibitor, partial curve, poor fit]
Cc1cccc(Nc2nc(-c3ccc(F)c(C)c3)cs2)n1 | inconclusive: 23.1 µM [activator, partial curve]
Cc1cccc(C(=O)Nc2nnc(-c3ccc(C(C)(C)C)cc3)s2)c1 | inactive
COc1cccc2[nH]c(C(=O)NCc3ccccc3)cc12 | active: 20.6 µM
Cc1ccc(Cl)cc1Nc1nc(-c2sc(NC(=O)C(C)(C)C)nc2C)cs1 | inactive
CCOc1ccc2[nH]c3c(N4CCC5(CC4)OCCO5)ncnc3c2c1 | inconclusive: 23.1 µM [inhibitor, partial curve, poor fit]
CC(Cc1ccccn1)NC(=O)CCc1nnc(C2CCCCC2)o1 (stereo unspecified) | inconclusive: 20.6 µM [activator, partial curve, poor fit]
Cc1ccccc1C(=O)NCC(=O)OCCOc1ccc(C(C)C)c(C)c1 | inactive
CCCC(=O)NC(c1ccc(Cl)cc1)c1ccc2cccnc2c1O (stereo unspecified) | inconclusive: 5.17 µM [inhibitor, single point]
Cc1ccc(C2=NNC(C(O)C(O)C(O)CO)S2)cc1 (stereo unspecified) | inconclusive: 16.4 µM [activator, partial curve]
COc1ccccc1CNCC(=O)Nc1cc(S(=O)(=O)N2CCCCCC2)ccc1Cl | active: 23.1 µM
CN(Cc1ccccc1)C(=O)c1ncn(Cc2ccccc2)c1C(=O)N(C)Cc1ccccc1 | inconclusive: 18.3 µM [inhibitor, single point]
CCOCCn1c2ccccc2c2nc3ccccc3nc21 | inactive
COc1ccc(C(=O)Nc2ccc(NC(=O)c3cccc(F)c3)cn2)cc1 | inconclusive: 18.3 µM [activator, single point]
COc1cc2ncnc(NCc3ccccc3)c2cc1OC | inconclusive: 20.6 µM [inhibitor, partial curve, poor fit]
CC(C)(C)NC(=O)C(c1ccccc1)N(C(=O)CNC(=O)c1cccs1)c1cccnc1 (stereo unspecified) | inactive
Cc1c(NC(=O)CSc2ccc(Cl)cc2)cccc1-c1nc2cc(Cl)ccc2o1 | inconclusive: 18.4 µM [activator, single point]
